Reference: the supplement of paper PMC10849652
The list shows a part of the results.

The chains behind the UniProt entries cited, without tags or fusion partners. Where a name states a change or a piece, a line headed by the entry shows the natural chain unless it says otherwise.
UniProt Q96PV6, whole entry, looked up: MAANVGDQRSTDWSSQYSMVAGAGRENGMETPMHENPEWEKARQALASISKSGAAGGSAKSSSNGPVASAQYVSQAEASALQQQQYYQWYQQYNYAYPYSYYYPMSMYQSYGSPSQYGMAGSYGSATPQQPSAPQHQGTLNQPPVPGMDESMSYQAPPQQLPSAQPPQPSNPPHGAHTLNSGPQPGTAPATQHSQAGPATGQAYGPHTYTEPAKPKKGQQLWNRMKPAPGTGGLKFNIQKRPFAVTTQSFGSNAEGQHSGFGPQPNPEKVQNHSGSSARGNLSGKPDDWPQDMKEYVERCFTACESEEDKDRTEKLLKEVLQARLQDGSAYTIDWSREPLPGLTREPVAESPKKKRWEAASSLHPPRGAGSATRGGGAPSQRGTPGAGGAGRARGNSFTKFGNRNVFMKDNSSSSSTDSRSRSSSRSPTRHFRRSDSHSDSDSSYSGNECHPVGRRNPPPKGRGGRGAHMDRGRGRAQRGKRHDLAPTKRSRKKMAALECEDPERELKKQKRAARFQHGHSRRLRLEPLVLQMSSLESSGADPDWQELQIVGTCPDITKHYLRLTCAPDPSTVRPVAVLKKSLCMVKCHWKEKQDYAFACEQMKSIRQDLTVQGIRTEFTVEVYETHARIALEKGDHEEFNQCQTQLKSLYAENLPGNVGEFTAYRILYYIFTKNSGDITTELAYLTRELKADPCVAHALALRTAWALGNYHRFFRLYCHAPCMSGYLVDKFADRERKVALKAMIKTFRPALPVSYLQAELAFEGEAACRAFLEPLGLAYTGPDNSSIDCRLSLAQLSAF
UniProt O95214: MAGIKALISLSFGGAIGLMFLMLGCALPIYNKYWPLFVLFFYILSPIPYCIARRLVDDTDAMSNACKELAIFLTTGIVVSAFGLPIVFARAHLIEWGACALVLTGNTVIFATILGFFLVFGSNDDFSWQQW
UniProt Q7L1W4: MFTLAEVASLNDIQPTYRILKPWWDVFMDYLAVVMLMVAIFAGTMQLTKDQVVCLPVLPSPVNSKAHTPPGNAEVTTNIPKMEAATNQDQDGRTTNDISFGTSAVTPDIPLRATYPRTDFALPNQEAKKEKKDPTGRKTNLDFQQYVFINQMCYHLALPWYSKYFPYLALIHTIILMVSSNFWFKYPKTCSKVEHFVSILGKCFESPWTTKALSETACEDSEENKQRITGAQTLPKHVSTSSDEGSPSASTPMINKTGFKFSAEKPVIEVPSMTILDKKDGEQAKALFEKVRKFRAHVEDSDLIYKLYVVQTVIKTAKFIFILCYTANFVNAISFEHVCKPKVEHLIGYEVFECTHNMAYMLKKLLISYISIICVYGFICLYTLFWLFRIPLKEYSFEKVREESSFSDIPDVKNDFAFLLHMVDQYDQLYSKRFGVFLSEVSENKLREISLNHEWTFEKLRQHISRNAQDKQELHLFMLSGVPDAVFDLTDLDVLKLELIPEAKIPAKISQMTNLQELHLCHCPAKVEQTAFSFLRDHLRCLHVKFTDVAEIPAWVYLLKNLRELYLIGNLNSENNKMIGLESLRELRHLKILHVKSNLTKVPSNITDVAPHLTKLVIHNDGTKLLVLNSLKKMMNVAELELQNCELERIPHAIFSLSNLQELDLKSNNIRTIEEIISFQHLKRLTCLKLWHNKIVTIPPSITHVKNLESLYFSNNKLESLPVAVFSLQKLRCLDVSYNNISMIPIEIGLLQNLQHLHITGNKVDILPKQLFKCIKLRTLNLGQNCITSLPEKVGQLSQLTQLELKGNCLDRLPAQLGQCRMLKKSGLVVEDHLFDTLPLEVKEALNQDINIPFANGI
UniProt P25791: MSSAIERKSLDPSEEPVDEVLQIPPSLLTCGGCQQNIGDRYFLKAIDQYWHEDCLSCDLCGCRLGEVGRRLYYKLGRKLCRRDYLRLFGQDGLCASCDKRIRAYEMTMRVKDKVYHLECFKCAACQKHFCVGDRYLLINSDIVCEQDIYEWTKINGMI
UniProt Q9BT23: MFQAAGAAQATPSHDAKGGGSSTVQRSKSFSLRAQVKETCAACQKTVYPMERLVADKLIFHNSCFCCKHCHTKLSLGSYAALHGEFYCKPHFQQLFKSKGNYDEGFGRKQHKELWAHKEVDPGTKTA
UniProt Q6ZUX7: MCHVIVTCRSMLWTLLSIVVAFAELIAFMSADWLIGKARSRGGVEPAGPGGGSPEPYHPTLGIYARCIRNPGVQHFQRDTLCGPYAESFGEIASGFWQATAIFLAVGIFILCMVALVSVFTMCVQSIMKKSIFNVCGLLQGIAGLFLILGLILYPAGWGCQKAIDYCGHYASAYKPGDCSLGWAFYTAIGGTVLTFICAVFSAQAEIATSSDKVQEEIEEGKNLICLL
UniProt P62312: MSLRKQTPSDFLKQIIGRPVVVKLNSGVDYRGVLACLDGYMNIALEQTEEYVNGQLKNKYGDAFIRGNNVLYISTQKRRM
UniProt Q9P244: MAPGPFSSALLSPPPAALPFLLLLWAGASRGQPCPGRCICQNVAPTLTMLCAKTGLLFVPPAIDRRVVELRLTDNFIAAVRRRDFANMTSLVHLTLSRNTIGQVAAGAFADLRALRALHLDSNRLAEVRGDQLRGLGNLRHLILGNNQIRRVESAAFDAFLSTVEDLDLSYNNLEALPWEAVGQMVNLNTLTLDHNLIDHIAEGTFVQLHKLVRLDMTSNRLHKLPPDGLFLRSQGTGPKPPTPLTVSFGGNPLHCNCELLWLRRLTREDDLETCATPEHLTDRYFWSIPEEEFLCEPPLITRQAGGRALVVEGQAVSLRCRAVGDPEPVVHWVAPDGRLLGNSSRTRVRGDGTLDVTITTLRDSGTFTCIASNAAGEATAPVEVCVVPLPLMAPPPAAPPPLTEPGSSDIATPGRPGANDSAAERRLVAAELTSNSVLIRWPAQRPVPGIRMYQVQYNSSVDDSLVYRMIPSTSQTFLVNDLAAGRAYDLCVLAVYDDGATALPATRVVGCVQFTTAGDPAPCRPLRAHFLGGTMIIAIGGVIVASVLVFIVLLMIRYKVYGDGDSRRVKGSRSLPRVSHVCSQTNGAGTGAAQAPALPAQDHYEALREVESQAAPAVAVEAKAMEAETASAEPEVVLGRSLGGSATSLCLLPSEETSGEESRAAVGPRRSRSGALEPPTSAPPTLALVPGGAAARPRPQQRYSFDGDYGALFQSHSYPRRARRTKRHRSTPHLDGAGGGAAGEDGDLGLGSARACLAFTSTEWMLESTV
UniProt Q96NW7: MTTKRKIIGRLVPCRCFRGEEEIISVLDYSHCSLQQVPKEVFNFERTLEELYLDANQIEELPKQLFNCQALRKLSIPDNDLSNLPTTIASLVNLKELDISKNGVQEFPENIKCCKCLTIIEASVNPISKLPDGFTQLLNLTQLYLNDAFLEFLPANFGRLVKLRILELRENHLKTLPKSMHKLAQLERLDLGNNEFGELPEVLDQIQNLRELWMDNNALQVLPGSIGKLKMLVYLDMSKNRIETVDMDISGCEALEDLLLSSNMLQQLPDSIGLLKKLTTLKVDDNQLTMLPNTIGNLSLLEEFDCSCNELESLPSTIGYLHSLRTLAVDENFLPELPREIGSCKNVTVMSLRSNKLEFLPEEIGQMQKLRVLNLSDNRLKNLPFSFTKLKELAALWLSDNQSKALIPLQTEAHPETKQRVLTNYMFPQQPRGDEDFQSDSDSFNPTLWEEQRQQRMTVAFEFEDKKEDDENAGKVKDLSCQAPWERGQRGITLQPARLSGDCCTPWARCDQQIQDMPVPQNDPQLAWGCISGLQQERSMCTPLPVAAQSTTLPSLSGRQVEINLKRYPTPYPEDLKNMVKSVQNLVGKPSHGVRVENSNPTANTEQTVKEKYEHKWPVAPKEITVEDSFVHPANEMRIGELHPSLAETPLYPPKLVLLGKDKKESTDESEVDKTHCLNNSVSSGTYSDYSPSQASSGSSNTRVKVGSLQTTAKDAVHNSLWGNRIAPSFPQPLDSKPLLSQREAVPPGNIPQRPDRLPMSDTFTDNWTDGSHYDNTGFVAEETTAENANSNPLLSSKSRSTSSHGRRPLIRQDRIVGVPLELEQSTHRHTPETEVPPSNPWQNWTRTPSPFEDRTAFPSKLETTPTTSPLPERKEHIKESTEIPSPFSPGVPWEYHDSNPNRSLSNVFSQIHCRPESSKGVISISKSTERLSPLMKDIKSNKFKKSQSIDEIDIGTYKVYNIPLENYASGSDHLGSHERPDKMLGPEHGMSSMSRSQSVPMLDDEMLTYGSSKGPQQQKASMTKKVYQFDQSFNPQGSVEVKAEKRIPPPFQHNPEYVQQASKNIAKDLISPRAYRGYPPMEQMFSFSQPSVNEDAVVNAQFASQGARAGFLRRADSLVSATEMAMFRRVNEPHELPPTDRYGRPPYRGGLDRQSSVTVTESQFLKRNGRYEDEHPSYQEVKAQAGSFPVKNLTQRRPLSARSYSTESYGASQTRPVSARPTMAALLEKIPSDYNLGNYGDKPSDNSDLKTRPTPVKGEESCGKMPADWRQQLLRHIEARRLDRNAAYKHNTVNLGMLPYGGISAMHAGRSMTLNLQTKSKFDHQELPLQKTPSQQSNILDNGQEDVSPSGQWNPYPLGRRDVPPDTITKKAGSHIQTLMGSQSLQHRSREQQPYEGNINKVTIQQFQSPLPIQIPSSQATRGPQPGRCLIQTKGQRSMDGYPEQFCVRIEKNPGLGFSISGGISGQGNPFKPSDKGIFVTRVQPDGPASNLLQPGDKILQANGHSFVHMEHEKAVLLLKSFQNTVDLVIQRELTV
UniProt Q9Y333: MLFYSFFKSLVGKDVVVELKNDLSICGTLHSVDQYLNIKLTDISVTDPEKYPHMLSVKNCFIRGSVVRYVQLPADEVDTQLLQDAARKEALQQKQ
UniProt Q3MHD2: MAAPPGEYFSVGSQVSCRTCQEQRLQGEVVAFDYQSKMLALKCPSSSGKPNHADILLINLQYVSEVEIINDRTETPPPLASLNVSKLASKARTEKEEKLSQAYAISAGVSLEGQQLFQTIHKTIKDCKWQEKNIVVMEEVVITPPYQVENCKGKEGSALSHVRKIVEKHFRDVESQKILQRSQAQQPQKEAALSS
UniProt Q32MZ4: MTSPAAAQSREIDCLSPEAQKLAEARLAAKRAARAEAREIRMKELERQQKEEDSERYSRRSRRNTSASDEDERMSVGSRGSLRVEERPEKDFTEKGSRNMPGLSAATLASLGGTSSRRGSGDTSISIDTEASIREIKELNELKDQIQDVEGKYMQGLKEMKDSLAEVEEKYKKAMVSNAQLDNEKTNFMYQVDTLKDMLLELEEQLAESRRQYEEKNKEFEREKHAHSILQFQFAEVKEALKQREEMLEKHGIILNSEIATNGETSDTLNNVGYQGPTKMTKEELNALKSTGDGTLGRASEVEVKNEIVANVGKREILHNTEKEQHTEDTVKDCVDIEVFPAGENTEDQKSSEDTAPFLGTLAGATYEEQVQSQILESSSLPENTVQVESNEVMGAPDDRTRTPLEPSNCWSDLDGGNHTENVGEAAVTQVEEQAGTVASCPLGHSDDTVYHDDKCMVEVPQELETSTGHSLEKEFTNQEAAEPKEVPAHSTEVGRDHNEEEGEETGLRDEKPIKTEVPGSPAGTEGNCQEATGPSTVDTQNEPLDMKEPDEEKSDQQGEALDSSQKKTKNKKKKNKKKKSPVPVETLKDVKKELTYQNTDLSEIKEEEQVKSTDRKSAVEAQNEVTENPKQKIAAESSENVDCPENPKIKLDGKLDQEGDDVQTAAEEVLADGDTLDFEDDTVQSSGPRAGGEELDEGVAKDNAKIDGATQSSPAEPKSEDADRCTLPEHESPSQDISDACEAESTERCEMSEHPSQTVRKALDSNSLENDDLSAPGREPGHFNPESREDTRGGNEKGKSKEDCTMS
UniProt Q14739: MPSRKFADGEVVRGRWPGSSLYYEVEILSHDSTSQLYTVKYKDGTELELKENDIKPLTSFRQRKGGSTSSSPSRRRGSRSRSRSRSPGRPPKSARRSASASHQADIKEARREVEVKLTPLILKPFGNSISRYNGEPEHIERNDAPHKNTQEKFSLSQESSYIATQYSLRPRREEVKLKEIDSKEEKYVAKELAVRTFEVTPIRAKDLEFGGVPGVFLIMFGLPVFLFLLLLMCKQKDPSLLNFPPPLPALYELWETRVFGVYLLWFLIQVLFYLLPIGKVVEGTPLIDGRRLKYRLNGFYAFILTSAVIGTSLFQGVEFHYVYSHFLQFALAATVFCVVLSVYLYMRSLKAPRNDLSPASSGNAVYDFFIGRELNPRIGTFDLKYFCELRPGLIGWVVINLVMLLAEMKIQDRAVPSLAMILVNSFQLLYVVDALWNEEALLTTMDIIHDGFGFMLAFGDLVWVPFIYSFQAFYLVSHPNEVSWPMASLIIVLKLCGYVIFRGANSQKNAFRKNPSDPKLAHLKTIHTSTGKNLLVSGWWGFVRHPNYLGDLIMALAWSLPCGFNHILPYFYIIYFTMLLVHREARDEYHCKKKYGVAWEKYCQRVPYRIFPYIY
UniProt O15116: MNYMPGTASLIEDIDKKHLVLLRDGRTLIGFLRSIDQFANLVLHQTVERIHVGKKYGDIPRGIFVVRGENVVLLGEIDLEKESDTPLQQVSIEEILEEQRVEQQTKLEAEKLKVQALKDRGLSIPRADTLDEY

Assays:
Experiment in all cases: log2 fold change, soluble protein after heating vs DMSO (PISA); higher = thermal stabilisation; K562 lysate, 10 uM; active = over 0.2 and 3.5 SD of the protein, either way, in both replicates (recomputed)
[1] = compound: C1=CC=C(C=C1)[C@H](COC2=CC3=C(C=C2)NC(=O)N3)NC(=O)C4=CC=CN(C4=O)CC5=CC(=C(C=C5)F)F
Summary of the method: (§1)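 Values give the log-two fold change in thermal stability against solvent controls, from duplicates. Crude K562 extract at 1 mg/mL protein, made by dounce homogenisation in PBS pH 7.4 with 1 mM MgCl2, was treated with 10 μM compound for 30 min. After 3 min heating across 48°C-58°C, aliquots were pooled, adjusted to 0.5% NP-40 at 4°C and centrifuged at 21,000xg for 90 min. The supernatant was measured by TMTpro 16plex LC-MS/MS with channel sums equalised.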

[2] = compound: CC1=C(SC2=C1C(=N[C@H](C3=NN=C(N32)C)CC(=O)N)C4=CC=C(C=C4)Cl)C
Summary of the method: as §1

[3] = compound: CC1=C2C(=CC=C1)N=C(N(C2=O)C3=CC=CC=C3C)CN4C=NC5=C(N=CN=C54)N
Summary of the method: as §1

[4] = compound: Cc1sc2c(c1C)C(c1ccc(Cl)cc1)=N[C@@H](CC(=O)OC(C)(C)C)c1nnc(C)n1-2
Summary of the method: as §1

[5] = compound: c1ccc([C@@H]2C[C@H]2NC2CCNCC2)cc1
Summary of the method: as §1

Measured: log2 fold change

LINS1 (UniProt Q8NG48)
inactive: [1] 0.032 | [2] -0.007 | [3] 0.079 | [4] -0.037 | [5] 0.009

LNX2 (UniProt Q8N448)
inactive: [1] 0.128 | [2] -0.057 | [3] 0.34 | [4] -0.135 | [5] -0.014

LIN28B (UniProt Q6ZN17)
inactive: [1] 0.028 | [2] -0.033 | [3] -0.002 | [4] -0.024 | [5] -0.059

LOR (UniProt P23490)
inactive: [1] -0.468 | [2] 0.012

LSR (UniProt Q86X29)
inactive: [1] -0.048 | [2] -0.02 | [3] 0.014 | [4] 0.005 | [5] -0.012

Two successive entries out of the list so far, quoted:
LIN28B (UniProt Q6ZN17)
inactive: [1] 0.028 | [2] -0.033 | [3] -0.002 | [4] -0.024 | [5] -0.059

LOR (UniProt P23490)
inactive: [1] -0.468 | [2] 0.012

The listing continues:

LPCAT3 (UniProt Q6P1A2)
inactive: [1] -0.116 | [2] -0.044 | [3] 0.052 | [4] -0.089 | [5] 0.044

LRBA (UniProt P50851)
inactive: [1] -0.003 | [2] 0.004 | [3] 0.012 | [4] -0.003 | [5] -0.003

LENG8 (UniProt Q96PV6)
inactive: [1] 0.042 | [2] -0.021 | [3] -0.069 | [4] 0.105 | [5] -0.023

LCP1 (UniProt P13796)
inactive: [1] 0.032 | [2] -0.013 | [3] -0.026 | [4] -0.004 | [5] -0.072

LSS (UniProt P48449)
inactive: [1] 0.016 | [2] -0.083 | [3] 0.014 | [4] -0.012 | [5] -0.007

LEPROTL1 isoform 2 (UniProt O95214)
inactive: [1] -0.008 | [2] -0.171 | [3] -0.078 | [4] -0.032

LGALS3 (UniProt P17931)
inactive: [1] -0.055 | [2] 0.082 | [3] 0 | [4] -0.257 | [5] 0.009

LSM4 (UniProt Q9Y4Z0)
inactive: [1] 0 | [2] 0.013 | [3] -0.016 | [4] -0.03 | [5] -0.034

LRRC8C (UniProt Q8TDW0)
inactive: [1] 0.35 | [2] 0.093 | [3] 0.046 | [4] -0.003 | [5] 0.033

LGALS8 isoform 2 (UniProt O00214)
inactive: [1] -0.024 | [2] -0.019 | [3] 0.069 | [4] 0.002 | [5] -0.006

LETM1 (UniProt O95202)
inactive: [1] 0.006 | [2] -0.017 | [3] 0.002 | [4] 0.042 | [5] -0.053

LCP2 (UniProt Q13094)
inactive: [1] 0.038 | [2] -0.017 | [3] 0.008 | [4] 0.045 | [5] 0.013

LRRC8D (UniProt Q7L1W4)
inactive: [1] -0.021 | [2] 0.015 | [3] 0.038 | [4] 0.025 | [5] -0.04

LMO2 isoform 3 (UniProt P25791)
inactive: [1] 0 | [2] -0.221 | [3] 0.087 | [4] 0.065 | [5] -0.14

LRRC14 (UniProt Q15048)
inactive: [1] 0.017 | [2] 0.104 | [3] 0.02 | [4] -0.069 | [5] -0.049

LIMD2 (UniProt Q9BT23)
inactive: [1] -0.09 | [2] 0.041

LCMT1 (UniProt Q9UIC8)
inactive: [1] 0.044 | [2] 0.006 | [3] -0.052 | [4] 0.014 | [5] -0.032

LLGL1 (UniProt Q15334)
inactive: [1] 0.038 | [2] 0.052 | [3] 0.024 | [4] -0.056 | [5] 0.074

LRRC4B (UniProt Q9NT99)
inactive: [1] 0.139 | [2] -0.015 | [3] 0.098 | [4] 0.21 | [5] 0.05

LHFPL2 (UniProt Q6ZUX7)
inactive: [1] 0.055 | [2] 0.138

LRPPRC (UniProt P42704)
inactive: [1] -0.067 | [2] 0.043 | [3] 0.049 | [4] 0.039 | [5] 0.122

LMAN2 (UniProt Q12907)
inactive: [1] -0.004 | [2] -0.011 | [3] 0.005 | [4] 0.041 | [5] -0.028

LSM6 (UniProt P62312)
inactive: [1] 0.044 | [2] 0 | [3] -0.014 | [4] -0.037 | [5] 0.023

LIPT2 (UniProt A6NK58)
inactive: [1] 0.205 | [2] 0.131

LRFN1 (UniProt Q9P244)
inactive: [1] 0.038 | [2] 0.085 | [3] -0.098 | [4] 0.046

Fetched one by one from above (2):
LRPPRC (UniProt P42704)
inactive: [1] -0.067 | [2] 0.043 | [3] 0.049 | [4] 0.039 | [5] 0.122

LIPT2 (UniProt A6NK58)
inactive: [1] 0.205 | [2] 0.131

(cont.)

LDHC (UniProt P07864)
inactive: [1] 0.264 | [2] -0.463 | [3] 0.023 | [4] -0.046

LMAN1 (UniProt P49257)
inactive: [1] 0.027 | [2] 0.005 | [3] 0.039 | [4] 0.025 | [5] 0.015

LRRC41 (UniProt Q15345)
inactive: [1] 0.019 | [2] 0.03 | [3] 0.009 | [4] 0.038

LHPP (UniProt Q9H008)
inactive: [1] 0.061 | [2] -0.121 | [3] -0.108 | [4] -0.037 | [5] -0.018

LRRC7 (UniProt Q96NW7)
inactive: [1] -0.001 | [2] -0.047 | [3] -0.309 | [4] 0 | [5] -0.001

LPCAT2 (UniProt Q7L5N7)
inactive: [1] -0.054 | [2] 0.111 | [3] 0.062 | [4] -0.032

LSM14B isoform 2 (UniProt Q9BX40)
inactive: [1] 0.073 | [2] 0.023 | [3] -0.001 | [4] 0.058 | [5] 0.007

LSM14B (UniProt Q9BX40)
inactive: [1] 0.005 | [2] 0.067

LAS1L (UniProt Q9Y4W2)
inactive: [1] -0.002 | [2] 0 | [3] -0.023 | [4] 0.02 | [5] -0.026

LSM2 (UniProt Q9Y333)
inactive: [1] -0.018 | [2] 0.023 | [3] 0.031 | [4] -0.003 | [5] -0.007

LIN54 (UniProt Q6MZP7)
inactive: [1] -0.004 | [2] -0.006 | [3] -0.054 | [4] 0.049 | [5] 0

LSM12 (UniProt Q3MHD2)
inactive: [1] 0.042 | [2] 0.073 | [3] 0.055 | [4] -0.006 | [5] -0.006

LRRFIP1 (UniProt Q32MZ4)
inactive: [1] 0.015 | [2] 0.013 | [3] -0.031 | [4] -0.043 | [5] -0.032

LDLRAP1 (UniProt Q5SW96)
inactive: [1] -0.083 | [2] -0.087 | [3] -0.12 | [4] -0.006 | [5] 0.131

LBR (UniProt Q14739)
inactive: [1] -0.018 | [2] 0.045 | [3] 0.04 | [4] 0.007 | [5] 0.117

LSM3 (UniProt P62310)
inactive: [1] 0.038 | [2] 0.045 | [3] 0.038 | [4] 0.006 | [5] -0.079

LRBA, A0A494BZW2
inactive: [1] 0.03 | [2] -0.013 | [3] 0.028 | [4] -0.033 | [5] 0.039

LDB1 (UniProt Q86U70)
inactive: [1] 0.051 | [2] -0.009 | [3] -0.027 | [4] -0.008 | [5] -0.069

LPCAT1 (UniProt Q8NF37)
inactive: [1] -0.071 | [2] 0.056 | [3] 0.066 | [4] 0 | [5] -0.115

LRRC8A (UniProt Q8IWT6)
inactive: [1] -0.086 | [2] 0.117 | [3] 0.028 | [4] 0.012 | [5] 0.011

LGALS1 (UniProt P09382)
inactive: [1] 0.02 | [2] -0.082 | [3] -0.001 | [4] -0.031 | [5] -0.111

LRRFIP2 (UniProt Q9Y608)
inactive: [1] 0.034 | [2] -0.028 | [3] -0.026 | [4] -0.002 | [5] 0.004

LSM1 (UniProt O15116)
inactive: [1] 0.056 | [2] 0.038 | [3] 0 | [4] 0.038 | [5] 0.032

LONP1 (UniProt P36776)
inactive: [1] -0.008 | [2] 0.025 | [3] -0.004 | [4] 0.023 | [5] 0.002

LINGO1 (UniProt Q96FE5)
inactive: [1] -0.116 | [2] 0.085 | [3] 0.005 | [4] -0.009 | [5] 0.052

LRRC8B (UniProt Q6P9F7)
inactive: [1] -0.028 | [2] -0.02 | [3] -0.219 | [4] 0.076 | [5] -0.022
